Values joined by “and” are separate entries in the source; they are usually repeats but may differ in a detail not shown here. Equal entries are not always repeated. Not every detail of the peptide structures is certain; ends, links or a residue may be inferred.
Legend:
[1] = target: T1, BO120 (short form of the human MCH1 receptor) (Homo sapiens, UniProt Q99705); assay: MCH-mediated intracellular calcium mobilization (fluo-3, FLIPR), COS-7 cells transfected with BO120; assay type: cell-based; details: construct BO120; two independent experiments; listed as Melanin Concentrating Hormone
T1 construct: A short form of the human MCH1 receptor expressing only the most downstream of the three potential initiating methionines; expressed in transfected cells; host or cells: COS-7

Amino acid sequences for entries named in this document (tags omitted). Chains listed by the source or under a name are the forms on record and can include a tag or linker.
UniProt Q99705, with tags, fused parts or gaps, stated change not applied: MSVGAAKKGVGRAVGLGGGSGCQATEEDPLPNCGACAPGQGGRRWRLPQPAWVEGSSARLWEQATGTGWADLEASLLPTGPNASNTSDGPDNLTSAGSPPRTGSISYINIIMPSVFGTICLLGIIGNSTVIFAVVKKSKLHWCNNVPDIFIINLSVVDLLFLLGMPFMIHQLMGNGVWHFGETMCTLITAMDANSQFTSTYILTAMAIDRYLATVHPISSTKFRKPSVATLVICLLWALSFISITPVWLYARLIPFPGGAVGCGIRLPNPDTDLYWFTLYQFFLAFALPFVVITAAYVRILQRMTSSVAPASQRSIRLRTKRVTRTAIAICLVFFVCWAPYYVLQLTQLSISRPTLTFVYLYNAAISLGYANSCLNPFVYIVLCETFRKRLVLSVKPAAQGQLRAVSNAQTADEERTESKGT

[2] = target: T2, human MCH1 receptor (Homo sapiens, UniProt Q99705); assay: Transcription assay (c-fos-β-gal reporter), Cos-7 cells transfected with MCH1; assay type: cell-based; design: expressed in transfected cells; host or cells: COS-7; details: 10 μM single dose
[3] = target: T2, human MCH1 receptor; assay type: cell-based; design: expressed in transfected cells; host or cells: COS-7; details: 10 μM
Description: Guidelines for cell preparation and assay of the second messenger inositol phosphate (IP) are described below for a typical protocol involving transiently transfected Cos-7 cells; For a 96 well microplate format assay, cells are plated at 70,000 cells per well and allowed to incubate for 24 hours after the transfection procedure. The cells are then labeled with 0.5 μCi [^3H]myo-inositol per micro-well over night at 37° C., 5% CO2. Immediately before the assay, the medium is removed and replaced with 90 μl PBS containing 10 mM LiCl. The plates are then incubated for 15 minutes at 37° C., […]. Following the incubation, the transfectants are challenged with agonist (10 μl/well; 10× concentration) for 30 minutes at 37° C., 5% CO2. The challenge is terminated and the cells lysed by the addition of 100 μl cold 5% v/v trichloroacetic acid (TCA), followed by an incubation at 4° C. for greater than 30 minutes. Total IPs are isolated from the lysate by ion exchange chromatography. Briefly, the lysed contents of the wells are transferred to a Multiscreen HV filter plate (Millipore) containing 100 μl Dowex AG1-X8 suspension (50% v/v, water:resin) (200-400 mesh, formate form). […] 200 μl of SuperMix scintillation cocktail is added to each well, mixed well, allowed to equilibrate and counted on a Micro Beta Trilux scintillation counter. […]

[4] = tested on: MCH binding sites of G4F-7 cells; details: inhibition of binding of the radioiodinated ligand; cited from earlier work
[5] = target: T3, R114 (M6A, M70A mutant human MCH1 receptor) (Homo sapiens, UniProt Q99705, M1A); assay: MCH-mediated intracellular calcium mobilization (fluo-3, FLIPR), COS-7 cells transfected with R114; assay type: cell-based; details: construct R114; two independent experiments; listed as Melanin Concentrating Hormone
T3 construct: expressed in transfected cells; host or cells: COS-7

CSCC[C@@H]1NC(=O)[C@@H](NC(=O)[C@H](CCCNC(=N)N)NC(=O)[C@H](CC(C)C)NC(=O)[C@H](CCSC)NC(=O)[C@H](CC(=O)O)NC(=O)[C@H](Cc2ccccc2)NC(=O)[C@@H](N)CC(=O)O)CSSC[C@@H](C(=O)N[C@@H](Cc2c[nH]c3ccccc23)C(=O)N[C@@H](CCC(N)=O)C(=O)N[C@H](C(=O)O)C(C)C)NC(=O)[C@@H]2CCCN2C(=O)[C@H](CCCNC(=N)N)NC(=O)[C@H](Cc2ccc(O)cc2)NC(=O)[C@H](C(C)C)NC(=O)[C@H](CCCNC(=N)N)NC(=O)CNC(=O)[C@H](CC(C)C)NC1=O [MCH]
Response to Melanin Concentrating Hormone: Max. Response (RFU) [1]: 30,000, RFU and 25,000 RFU
c-fos-regulated transcriptional activity over cells challenged with medium only [2]: approximately 3.9 fold
stimulation of IP release over basal levels ([3]; Cos-7 cells transfected with MCH1 alone): 3.4 fold
increase in IP production compared to cells transfected with Gα16 alone ([3]; Cos-7 cells transfected with MCH1 and Gα16): approximately 1.4 fold
Ki [4]: 0.012 µM
Response to Melanin Concentrating Hormone: Max. Response (RFU) [5]: 2,267, RFU and 1,550 RFU
